Results from patent US20160244514A1.
No constants are given. Whether binding was seen depends on the method and setting. Some results given as binding are weak or reduced against the parent protein; the word gives no strength.

Amino acid sequences for entries named in this document (tags omitted). Residues count along the entry.
Amyloid Beta (antigen of the Amyloid Beta ELISA) (P05067, residues 672-713): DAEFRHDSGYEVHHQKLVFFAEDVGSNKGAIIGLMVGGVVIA
Amyloid in cerebral amyloid angiopathy (CAA) (P05067, residues 672-711): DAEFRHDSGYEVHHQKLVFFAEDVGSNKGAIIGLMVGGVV

Key:
[1] = target: Amyloid Beta (antigen of the Amyloid Beta ELISA) (UniProt P05067); assay: Amyloid Beta ELISA, conditioned medium of transient transfection, A405 against ng/well
[2] = target: diffuse plaques in non-demented pre-AD patients (human) (UniProt P05067); assay: immunohistochemistry on human brain sections
[3] = target: Amyloid in cerebral amyloid angiopathy (CAA) (human) (UniProt P05067); assay: immunohistochemistry on human brain sections
[4] = target: Amyloid Beta (antigen of the Amyloid Beta ELISA) (UniProt P05067); assay: ELISA for binding to Amyloid Beta, conditioned medium from transient transfection
[5] = target: Amyloid Beta (antigen of the Amyloid Beta ELISA) (UniProt P05067); assay: Amyloid Beta ELISA, antibodies purified from NS0 lines, A405 against ng/well
[6] = target: Amyloid Beta (antigen of the Amyloid Beta ELISA) (UniProt P05067); assay: Amyloid Beta ELISA, antibody purified from stable NS0 cell lines
[7] = target: Amyloid Beta (antigen of the Amyloid Beta ELISA) (UniProt P05067); assay: Amyloid Beta ELISA, purified antibody, A405 against ng/well
[8] = target: amyloid plaques of brains from AD disease patients (human) (UniProt P05067); assay: immunohistochemistry, paraffin sections of human brain pretreated with formic acid
[9] = target: Amyloid Beta (antigen of the Amyloid Beta ELISA) (UniProt P05067); assay: Amyloid Beta ELISA, conditioned medium from transient transfection
[10] = target: Amyloid Beta (antigen of the Amyloid Beta ELISA) (UniProt P05067); assay: Amyloid Beta ELISA, purified antibodies

binding [1]	binding [5]	binding [9]	binding [10]	Binder	also measured
binds	binds	–	–	chimeric antibody C2 ChVH AF/ChVK (antibody, human IgG4 S228P, kappa, V domains shown) VH: EVQLVESGGGLVQPGGSLKLSCAASGFTFSSYGMSWVRQTPDKRLELVASINSNGGSTYYPDSVKGRFTISRDNAKNTLYLQMSSLKSEDTAMYYCASGDYWGQGSTLTVSS VL: DVVMTQTPLSLPVSLGDQASISCRSSQSLVYSNGDTYLHWYLQKPGQSPKLLIYKVSNRFSGVPDRFSGSGSGTDFTLKISRVEAEDLGVYFCSQSTHVPWTFGGGTKLEIKR	binding [2]: binds; binding [3]: binds; binding [4]: binds; binding [6]: binds; binding [7]: binds; binding [8]: binds
binds	–	binds	–	VK-S antibody (mC2 VK-S with chimeric C2 VH) (antibody, V domains shown) VH: EVQLVESGGGLVQPGGSLKLSCAASGFTFSSYGMSWVRQTPDKRLELVASINSNGGSTYYPDSVKGRFTISRDNAKNTLYLQMSSLKSEDTAMYYCASGDYWGQGSTLTVSS VL: DVVMTQTPLSLPVSLGDQASISCRSSQSLVYSNGDTYLHWYLQKPGQSPKLLIYKVSSRFSGVPDRFSGSGSGTDFTLKISRVEAEDLGVYFCSQSTHVPWTFGGGTKLEIK	–
–	binds	–	–	humanized antibody C2 HuVH2/HuVK3 (antibody, human IgG4 S228P, kappa, V domains shown) VH: EVQLVESGGGLVQPGGSLRLSCAASGFTFSSYGMSWVRQAPGKGLEWVASINSNGGSTYYPDSVKGRFTISRDNAKNSLYLQMNSLRAEDTAVYYCASGDYWGQGTTVTVSS VL: DIVMTQSPLSLPVTPGEPASISCRSSQSLVYSNGDTYLHWYLQKPGQSPKLLIYKVSNRFSGVPDRFSGSGSGTDFTLKISRVEAEDVGVYYCSQSTHVPWTFGQGTKVEIKR	–
–	binds	–	binds	humanized antibody C2 HuVH2/HuVK4 (antibody, human IgG4 S228P, kappa, V domains shown) VH: EVQLVESGGGLVQPGGSLRLSCAASGFTFSSYGMSWVRQAPGKGLEWVASINSNGGSTYYPDSVKGRFTISRDNAKNSLYLQMNSLRAEDTAVYYCASGDYWGQGTTVTVSS VL: DIVMTQSPLSLPVTPGEPASISCRSSQSLVYSNGDTYLHWYLQKPGQSPKLLIYKVSNRFSGVPDRFSGSGSGTDFTLKISRVEAEDVGVYFCSQSTHVPWTFGQGTKVEIKR	–
–	binds	–	binds	humanized antibody C2HuVH4/HuVK2 (antibody, human IgG4 S228P, kappa, V domains shown) VH: EVQLVESGGGLVQPGGSLRLSCAASGFTFSSYGMSWVRQAPGKGLELVASINSNGGSTYYPDSVKGRFTISRDNAKNSLYLQMNSLRAEDTAVYYCASGDYWGQGTTVTVSS VL: DIVMTQSPLSLPVTPGEPASISCRSSQSLVYSNGDTYLHWYLQKPGQSPQLLIYKVSNRFSGVPDRFSGSGSGTDFTLKISRVEAEDVGVYFCSQSTHVPWTFGQGTKVEIKR	–
binds	–	binds	–	VK-R antibody (mC2 VK-R with chimeric C2 VH) (antibody, V domains shown) VH: EVQLVESGGGLVQPGGSLKLSCAASGFTFSSYGMSWVRQTPDKRLELVASINSNGGSTYYPDSVKGRFTISRDNAKNTLYLQMSSLKSEDTAMYYCASGDYWGQGSTLTVSS VL: DVVMTQTPLSLPVSLGDQASISCRSSQSLVYSNGDTYLHWYLQKPGQSPKLLIYRVSNRFSGVPDRFSGSGSGTDFTLKISRVEAEDLGVYFCSQSTHVPWTFGGGTKLEIK	–
–	binds	–	binds	humanized antibody C2 HuVH2/HuVK1 (antibody, human IgG4 S228P, kappa, V domains shown) VH: EVQLVESGGGLVQPGGSLRLSCAASGFTFSSYGMSWVRQAPGKGLEWVASINSNGGSTYYPDSVKGRFTISRDNAKNSLYLQMNSLRAEDTAVYYCASGDYWGQGTTVTVSS VL: DIVMTQSPLSLPVTPGEPASISCRSSQSLVYSNGDTYLHWYLQKPGQSPQLLIYKVSNRFSGVPDRFSGSGSGTDFTLKISRVEAEDVGVYYCSQSTHVPWTFGQGTKVEIKR	–
–	–	binds	–	C2 HuVH AF version 2 combined with the chimeric C2 kappa chain (antibody, V domains shown) VH: EVQLVESGGGLVQPGGSLRLSCAASGFTFSSYGMSWVRQAPGKGLEWVASINSNGGSTYYPDSVKGRFTISRDNAKNSLYLQMNSLRAEDTAVYYCASGDYWGQGTTVTVSS VL: DVVMTQTPLSLPVSLGDQASISCRSSQSLVYSNGDTYLHWYLQKPGQSPKLLIYKVSNRFSGVPDRFSGSGSGTDFTLKISRVEAEDLGVYFCSQSTHVPWTFGGGTKLEIK	–
